Data: PubChem BioAssay AID196 (DTP/NCI, 2004)
The list is a part of this screen's results and no random one: it gathers tests that were run many times, whatever their T/C, doses with no T/C, and many T/C values between a quarter and a half above the control. Other doses and runs of a compound stand elsewhere. T/C: endpoint of the treated group in % of that of the vehicle group. Some entries give survivors of the animals treated and no T/C: the source holds a T/C of zero for them, seemingly a mark for toxic or unscored doses. Some survivor counts are full or nearly so, which does not show that the dose was tolerated: survival well below the control is almost never listed, so the zero probably covers shortened survival too. Counts of survivors are from the toxicity check (mostly the fifth day) where no day follows; animals may have died later. Schedules are NCI's codes, taken here to give the interval after Q, in days (D) or hours (H), and the number of doses after X. Some entries hold several experiments; the results are listed from low to high. Some molecules as drawn cover several salts, stereoisomers or complexes of the source; a dose is that of the sample tested. Additions like (4×) count equal records among those shown. Where survival is the endpoint, this PubChem deposit counts one and a half times the control or more as active, and values a quarter to a half above the control carry no call in these data; other NCI protocols may use other cut-offs. Some T/C values are followed by the survivors on the day toxicity was checked, most often the fifth; where none is given, no animal had died by that day.

Tested on: BDF1 mice, intracerebral B16 melanoma, median survival T/C
Experiment: NCI In Vivo Anticancer Drug Screen. Data for tumor model B16 Melanoma (intracerebral) in B6D2F1 (BDF1) mice
Settings: T/C endpoint: median survival time, higher T/C = longer survival
Description: The antitumor activity of compounds was measured in mice bearing transplantable tumors. Survival or tumor size were measured and the results are expressed as the measurement made in the treated group (T) divided by the measurement made in the vehicle treated control group (C). The tumor model used in this assay is B16 Melanoma (intracerebral) in B6D2F1 (BDF1) mice

[1] = dose: 4.0 mg/kg/injection, schedule: Q01DX009 (ip), vehicle: saline
[2] = dose: 16.0 mg/kg/injection, schedule: Q01DX009 (ip), vehicle: saline with Tween-80
[3] = dose: 16.0 mg/kg/injection, schedule: Q01DX009 (ip), vehicle: saline
[4] = dose: 32.0 mg/kg/injection, schedule: Q01DX009 (ip), vehicle: saline
[5] = dose: 60.0 mg/kg/injection, schedule: Q01DX001 (ip), vehicle: Klucel (hydroxypropylcellulose) (HPC)
[6] = dose: 16.0 mg/kg/injection, schedule: Q01DX005 (ip), vehicle: saline with Tween-80

`O=NN(CCCl)C(=O)NCCCl` was tested. Which T/C (dose: 0.5 mg/kg/injection, schedule: Q01DX009 (ip), vehicle: saline with Tween-80, evaluated on day 30) did it give?
Its T/C is 104 and 112 % of control.

And the T/C (dose: 0.5 mg/kg/injection, schedule: Q01DX009 (ip), vehicle: saline with Tween-80, evaluated on day 60)?
Its T/C is 99 [9 of 10 alive], 105, 107 % of control.

And the T/C (dose: 1.0 mg/kg/injection, schedule: Q01DX009 (ip), vehicle: saline with Tween-80, evaluated on day 30)?
Its T/C is 110 and 114 % of control.

What about the T/C (dose: 1.0 mg/kg/injection, schedule: Q01DX009 (ip), vehicle: saline with Tween-80, evaluated on day 60) of the same molecule?
The T/C was 102, 116, 122 % of control.

What about the T/C (dose: 1.9 mg/kg/injection, schedule: Q01DX009 (ip), vehicle: saline) of the same molecule?
Its T/C is 125 % of control.

What about the T/C (dose: 2.0 mg/kg/injection, schedule: Q01DX009 (ip), vehicle: saline with Tween-80, evaluated on day 30) of the same molecule?
Its T/C is 114 and 118 % of control.

What about the T/C (dose: 2.0 mg/kg/injection, schedule: Q01DX009 (ip), vehicle: saline with Tween-80, evaluated on day 60) of the same molecule?
Its T/C is 115, 116, 143 % of control [9 of 10 alive].

What about the T/C (dose: 2.5 mg/kg/injection, schedule: Q01DX009 (ip), vehicle: other) of the same molecule?
The T/C was 125 % of control.

And the T/C (dose: 3.75 mg/kg/injection, schedule: Q01DX009 (ip), vehicle: saline)?
Its T/C is 137 % of control.

And the T/C (dose: 4.0 mg/kg/injection, schedule: Q01DX009 (ip), vehicle: saline with Tween-80, evaluated on day 30)?
The T/C was 120 and 129 % of control.

What about the T/C (dose: 4.0 mg/kg/injection, schedule: Q01DX009 (ip), vehicle: saline with Tween-80, evaluated on day 60) of the same molecule?
Its T/C is 130, 139, 146 % of control.

What about the T/C [1] of the same molecule?
Its T/C is 128 and 134 % of control.

What about the T/C (dose: 5.0 mg/kg/injection, schedule: Q04DX003 (ip), vehicle: saline sonified) of the same molecule?
The T/C was 125 % of control.

What about the T/C (dose: 7.5 mg/kg/injection, schedule: Q01DX009 (ip), vehicle: saline) of the same molecule?
The T/C was 141 % of control.

And the T/C (dose: 8.0 mg/kg/injection, schedule: Q01DX009 (ip), vehicle: saline with Tween-80, evaluated on day 30)?
Its T/C is 161 and 170 % of control.

What about the T/C (dose: 8.0 mg/kg/injection, schedule: Q01DX009 (ip), vehicle: saline with Tween-80, evaluated on day 60) of the same molecule?
Its T/C is 135, 172 [9 of 10 alive], 175 % of control.

What about the T/C (dose: 10.0 mg/kg/injection, schedule: Q01DX009 (ip), vehicle: other) of the same molecule?
Its T/C is 133 % of control.

And the T/C (dose: 16.0 mg/kg/injection, schedule: Q01DX009 (ip), vehicle: saline with Tween-80, evaluated on day 30)?
The T/C was 162 % of control.

And the T/C (dose: 16.0 mg/kg/injection, schedule: Q01DX009 (ip), vehicle: saline with Tween-80, evaluated on day 60)?
The T/C was 151 % of control.

And the survivor count [2]?
Its survivor count is 9 of 10 and 10 of 10.

What about the survivor count [3] of the same molecule?
Its survivor count is 10 of 10.

What about the survivor count (dose: 20.0 mg/kg/injection, schedule: Q01DX009 (ip), vehicle: other) of the same molecule?
Its survivor count is 10 of 10.

And the survivor count (dose: 24.0 mg/kg/injection, schedule: Q01DX009 (ip), vehicle: saline + alcohol)?
Its survivor count is 10 of 10.

What about the survivor count (dose: 32.0 mg/kg/injection, schedule: Q01DX009 (ip), vehicle: saline + alcohol) of the same molecule?
The survivor count was 10 of 10.

`O=NN(CCF)C(=O)N[C@H]1CCCC[C@H]1O` was tested. Which survivor count (dose: 90.0 mg/kg/injection, schedule: Q01DX001 (ip), vehicle: Klucel (hydroxypropylcellulose) (HPC)) did it give?
The survivor count was 6 of 10 on day 6.

And the survivor count (dose: 135.0 mg/kg/injection, schedule: Q01DX001 (ip), vehicle: Klucel (hydroxypropylcellulose) (HPC))?
Its survivor count is 4 of 10 on day 6.

What does the source list for `O=C1c2ccccc2C(=O)c2c(NCCNCCO)ccc(NCCNCCO)c21`?
survivor count (dose: 1.0 mg/kg/injection, schedule: Q01DX005 (ip), vehicle: saline with Tween-80): 8 of 10; survivor count (dose: 1.0 mg/kg/injection, schedule: Q01DX005 (ip), vehicle: saline): 4 of 10; survivor count (dose: 2.0 mg/kg/injection, schedule: Q01DX005 (ip), vehicle: saline with Tween-80): 8 of 10; survivor count (dose: 2.0 mg/kg/injection, schedule: Q01DX005 (ip), vehicle: saline): 8 of 10; survivor count (dose: 4.0 mg/kg/injection, schedule: Q01DX005 (ip), vehicle: saline with Tween-80): 6 of 10 and 7 of 10; survivor count (dose: 4.0 mg/kg/injection, schedule: Q01DX005 (ip), vehicle: saline): 7 of 10; survivor count [2]: 10 of 10; survivor count (dose: 32.0 mg/kg/injection, schedule: Q01DX009 (ip), vehicle: saline with Tween-80): 10 of 10 (2×); survivor count [4]: 9 of 10; survivor count (dose: 64.0 mg/kg/injection, schedule: Q01DX005 (ip), vehicle: Klucel (hydroxypropylcellulose) (HPC)): 9 of 10; survivor count (dose: 64.0 mg/kg/injection, schedule: Q01DX009 (ip), vehicle: saline with Tween-80): 6 of 10 and 9 of 10

`O=NN(CCCl)C(=O)NC1CCC(=O)NC1=O` (configuration not stated) was tested. Which T/C (dose: 1.0 mg/kg/injection, schedule: Q01DX009 (ip), vehicle: saline with Tween-80) did it give?
The T/C was 128 % of control [9 of 10 alive].

And the T/C (dose: 10.8 mg/kg/injection, schedule: Q01DX001 (ip), vehicle: other)?
Its T/C is 128 % of control.

What about the T/C (dose: 30.0 mg/kg/injection, schedule: Q01DX001 (ip), vehicle: other) of the same molecule?
Its T/C is 146 % of control.

What about the survivor count (dose: 33.3 mg/kg/injection, schedule: Q01DX001 (ip), vehicle: Klucel (hydroxypropylcellulose) (HPC)) of the same molecule?
Its survivor count is 9 of 10 on day 6.

What about the survivor count (dose: 50.0 mg/kg/injection, schedule: Q01DX001 (ip), vehicle: other) of the same molecule?
The survivor count was 10 of 10.

What about the survivor count [5] of the same molecule?
Its survivor count is 10 of 10 on day 6.

Which results are given for `COc1cc(NS(C)(=O)=O)ccc1Nc1c2ccccc2nc2c(C)cccc12`?
survivor count (dose: 20.0 mg/kg/injection, schedule: Q04DX003 (ip), vehicle: Klucel (hydroxypropylcellulose) (HPC)): 4 of 6; survivor count (dose: 40.0 mg/kg/injection, schedule: Q04DX003 (ip), vehicle: Klucel (hydroxypropylcellulose) (HPC)): 6 of 6; survivor count (dose: 40.0 mg/kg/injection, schedule: Q04DX003 (ip), vehicle: saline): 5 of 6

For `S=c1nc[nH]c2nc[nH]c12`, which survivor count (dose: 90.0 mg/kg/injection, schedule: Q01DX009 (ip), vehicle: other) is on record?
The survivor count was 1 of 10.

How did the survivor count (dose: 8.0 mg/kg/injection, schedule: Q01DX001 (ip), vehicle: saline + alcohol) turn out when `NC(=O)N(CCCl)N=O` was run?
The survivor count was 10 of 10.

And the survivor count (dose: 16.0 mg/kg/injection, schedule: Q01DX001 (ip), vehicle: saline + alcohol)?
The survivor count was 7 of 10.

Which results are given for `O=CC(NC(=O)N(CCCl)N=O)C(O)C(O)C(O)CO` (configuration not stated)?
survivor count [3]: 10 of 10; survivor count [4]: 9 of 10; survivor count (dose: 40.0 mg/kg/injection, schedule: Q01DX001 (ip), vehicle: Klucel (hydroxypropylcellulose) (HPC)): 10 of 10 on day 6; survivor count [5]: 10 of 10 on day 6; survivor count (dose: 60.0 mg/kg/injection, schedule: Q01DX001 (ip), vehicle: saline with Tween-80): 10 of 10; survivor count (dose: 120.0 mg/kg/injection, schedule: Q01DX001 (ip), vehicle: saline with Tween-80): 3 of 10

For `OC(C1CO1)C(O)C1CO1` (configuration not stated), which T/C [1] is on record?
Its T/C is 129 and 144 % of control [5 of 6 alive].

Which survivor count [6] does the source give for `CCC1=C(c2ccc(OC)cc2)CCC(C(=O)O)C1C` (configuration not stated) here?
Its survivor count is 10 of 10.

For `NC(Cc1ccc(N(CCCl)CCCl)cc1)C(=O)O` (configuration not stated), which T/C (dose: 4.0 mg/kg/injection, schedule: Q01DX009 (ip), vehicle: water) is on record?
The T/C was 133 % of control.

And the T/C (dose: 8.0 mg/kg/injection, schedule: Q01DX009 (ip), vehicle: water)?
Its T/C is 129 % of control.

What about the survivor count (dose: 16.0 mg/kg/injection, schedule: Q01DX009 (ip), vehicle: water) of the same molecule?
The survivor count was 10 of 10.

For `CCCCN(C)N=Nc1c(C(N)=O)n[nH]c1C`, which T/C (dose: 8.0 mg/kg/injection, schedule: Q01DX005 (ip), vehicle: saline with Tween-80) is on record?
The T/C was 143 % of control.

And the T/C [6]?
Its T/C is 140 % of control.

And the survivor count (dose: 64.0 mg/kg/injection, schedule: Q01DX005 (ip), vehicle: saline with Tween-80)?
The survivor count was 10 of 10.

And the survivor count (dose: 128.0 mg/kg/injection, schedule: Q01DX005 (ip), vehicle: saline with Tween-80)?
The survivor count was 9 of 10.

Which T/C (dose: 7.2 mg/kg/injection, schedule: Q01DX001 (ip), vehicle: saline) does the source give for `O=NN(CCCl)C(=O)NC1[C@H](O)CCC[C@@H]1O` (some centres not stated) here?
Its T/C is 132 % of control.

What about the T/C (dose: 20.0 mg/kg/injection, schedule: Q01DX001 (ip), vehicle: saline) of the same molecule?
The T/C was 126 % of control.

What about the survivor count (dose: 33.3 mg/kg/injection, schedule: Q01DX001 (ip), vehicle: saline) of the same molecule?
The survivor count was 10 of 10 on day 6.
